Protein sequences, listed by entry. Tags and fused reporters are not part of them. Lines headed by an entry give the natural chain unless they say otherwise; changes in a name come on top.
UniProt Q64LD2: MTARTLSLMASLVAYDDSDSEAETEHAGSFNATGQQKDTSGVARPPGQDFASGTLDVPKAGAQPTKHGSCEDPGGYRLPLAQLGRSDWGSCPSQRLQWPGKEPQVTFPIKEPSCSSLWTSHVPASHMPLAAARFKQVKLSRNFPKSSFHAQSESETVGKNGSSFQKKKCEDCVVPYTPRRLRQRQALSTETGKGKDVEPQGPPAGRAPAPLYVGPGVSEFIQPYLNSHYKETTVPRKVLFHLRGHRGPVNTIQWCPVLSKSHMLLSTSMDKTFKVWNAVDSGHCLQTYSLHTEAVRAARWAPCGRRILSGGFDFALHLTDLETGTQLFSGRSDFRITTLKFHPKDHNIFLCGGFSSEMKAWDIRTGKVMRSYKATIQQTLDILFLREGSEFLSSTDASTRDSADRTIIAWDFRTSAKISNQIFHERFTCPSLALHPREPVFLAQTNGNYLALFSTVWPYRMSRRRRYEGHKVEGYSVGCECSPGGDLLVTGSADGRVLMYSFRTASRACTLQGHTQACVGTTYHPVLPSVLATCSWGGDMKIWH
UniProt Q6P996: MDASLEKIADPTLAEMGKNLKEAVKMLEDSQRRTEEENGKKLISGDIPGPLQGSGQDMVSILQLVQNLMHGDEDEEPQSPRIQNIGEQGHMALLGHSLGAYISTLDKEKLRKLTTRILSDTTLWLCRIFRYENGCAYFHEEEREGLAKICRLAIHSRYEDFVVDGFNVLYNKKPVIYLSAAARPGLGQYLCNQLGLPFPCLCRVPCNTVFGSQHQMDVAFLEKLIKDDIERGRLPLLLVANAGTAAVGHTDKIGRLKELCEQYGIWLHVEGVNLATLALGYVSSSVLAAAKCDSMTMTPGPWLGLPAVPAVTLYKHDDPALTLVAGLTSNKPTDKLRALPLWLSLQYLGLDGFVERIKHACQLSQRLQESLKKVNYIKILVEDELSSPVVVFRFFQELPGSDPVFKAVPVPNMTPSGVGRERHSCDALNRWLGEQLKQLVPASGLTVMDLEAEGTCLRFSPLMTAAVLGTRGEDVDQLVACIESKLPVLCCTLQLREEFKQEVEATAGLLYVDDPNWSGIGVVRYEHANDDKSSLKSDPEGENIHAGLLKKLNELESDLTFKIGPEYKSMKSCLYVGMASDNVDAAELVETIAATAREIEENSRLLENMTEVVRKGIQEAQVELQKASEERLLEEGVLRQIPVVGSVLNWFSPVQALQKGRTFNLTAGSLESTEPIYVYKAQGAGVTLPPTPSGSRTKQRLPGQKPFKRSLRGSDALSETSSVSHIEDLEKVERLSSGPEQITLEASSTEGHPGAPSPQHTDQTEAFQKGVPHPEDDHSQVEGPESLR
UniProt Q6PF06: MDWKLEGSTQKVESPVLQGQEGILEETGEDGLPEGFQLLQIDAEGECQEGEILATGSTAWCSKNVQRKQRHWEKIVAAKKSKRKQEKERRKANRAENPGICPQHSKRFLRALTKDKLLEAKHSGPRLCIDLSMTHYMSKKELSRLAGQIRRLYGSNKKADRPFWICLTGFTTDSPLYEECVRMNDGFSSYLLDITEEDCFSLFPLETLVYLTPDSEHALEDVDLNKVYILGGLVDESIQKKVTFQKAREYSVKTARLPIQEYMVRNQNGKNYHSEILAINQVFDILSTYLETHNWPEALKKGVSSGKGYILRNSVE
UniProt Q6NVU6: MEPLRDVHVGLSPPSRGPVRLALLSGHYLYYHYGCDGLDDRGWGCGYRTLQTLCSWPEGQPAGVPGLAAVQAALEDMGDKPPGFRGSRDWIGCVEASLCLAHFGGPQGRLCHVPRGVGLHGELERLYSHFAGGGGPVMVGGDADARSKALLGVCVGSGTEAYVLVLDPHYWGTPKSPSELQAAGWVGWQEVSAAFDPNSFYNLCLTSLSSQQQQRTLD
UniProt Q63ZY3: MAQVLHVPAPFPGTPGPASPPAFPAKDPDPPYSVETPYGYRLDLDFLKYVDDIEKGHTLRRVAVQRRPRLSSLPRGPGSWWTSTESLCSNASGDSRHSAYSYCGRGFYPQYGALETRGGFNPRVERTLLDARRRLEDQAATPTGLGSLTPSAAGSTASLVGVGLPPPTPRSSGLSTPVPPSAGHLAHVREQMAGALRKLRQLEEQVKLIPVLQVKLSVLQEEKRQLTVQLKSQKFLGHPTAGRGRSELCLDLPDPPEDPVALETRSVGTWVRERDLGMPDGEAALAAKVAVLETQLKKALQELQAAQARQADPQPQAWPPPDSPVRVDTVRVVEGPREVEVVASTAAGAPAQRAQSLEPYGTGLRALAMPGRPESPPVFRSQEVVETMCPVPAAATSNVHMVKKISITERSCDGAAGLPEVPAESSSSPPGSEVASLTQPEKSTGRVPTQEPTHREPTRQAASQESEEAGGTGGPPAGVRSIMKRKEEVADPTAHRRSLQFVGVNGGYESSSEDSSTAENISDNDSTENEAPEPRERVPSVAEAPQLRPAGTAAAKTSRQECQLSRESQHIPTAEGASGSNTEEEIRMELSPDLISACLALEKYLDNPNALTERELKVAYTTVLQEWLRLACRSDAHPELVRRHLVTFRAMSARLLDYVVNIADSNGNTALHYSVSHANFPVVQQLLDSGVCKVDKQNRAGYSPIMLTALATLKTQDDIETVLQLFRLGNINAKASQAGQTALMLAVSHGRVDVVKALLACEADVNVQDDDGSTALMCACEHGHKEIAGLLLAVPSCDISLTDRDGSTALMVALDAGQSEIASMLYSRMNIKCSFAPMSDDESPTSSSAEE
UniProt Q6TFL4: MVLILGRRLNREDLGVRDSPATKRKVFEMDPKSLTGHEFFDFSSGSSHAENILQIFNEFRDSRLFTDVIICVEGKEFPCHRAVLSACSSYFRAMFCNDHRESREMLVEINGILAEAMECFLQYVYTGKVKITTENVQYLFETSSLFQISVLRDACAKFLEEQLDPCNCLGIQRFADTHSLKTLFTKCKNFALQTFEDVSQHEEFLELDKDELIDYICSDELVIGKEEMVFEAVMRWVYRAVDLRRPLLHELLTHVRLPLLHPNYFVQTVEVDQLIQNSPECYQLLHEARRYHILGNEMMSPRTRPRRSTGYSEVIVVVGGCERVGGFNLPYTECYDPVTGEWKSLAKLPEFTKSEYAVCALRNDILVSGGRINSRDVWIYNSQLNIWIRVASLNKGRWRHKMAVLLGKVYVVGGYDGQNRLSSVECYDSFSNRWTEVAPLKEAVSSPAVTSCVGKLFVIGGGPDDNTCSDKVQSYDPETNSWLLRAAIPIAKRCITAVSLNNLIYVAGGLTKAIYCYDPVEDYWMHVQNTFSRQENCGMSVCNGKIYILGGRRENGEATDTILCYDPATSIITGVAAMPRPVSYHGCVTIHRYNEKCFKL
UniProt Q66PJ3: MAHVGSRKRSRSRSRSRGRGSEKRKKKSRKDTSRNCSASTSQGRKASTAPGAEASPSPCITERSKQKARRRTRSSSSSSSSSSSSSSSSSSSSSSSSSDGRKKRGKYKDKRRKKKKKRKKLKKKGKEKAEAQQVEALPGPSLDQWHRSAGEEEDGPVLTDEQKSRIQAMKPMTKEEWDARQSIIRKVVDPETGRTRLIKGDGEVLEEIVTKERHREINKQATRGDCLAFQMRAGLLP
UniProt Q6PID6, whole entry: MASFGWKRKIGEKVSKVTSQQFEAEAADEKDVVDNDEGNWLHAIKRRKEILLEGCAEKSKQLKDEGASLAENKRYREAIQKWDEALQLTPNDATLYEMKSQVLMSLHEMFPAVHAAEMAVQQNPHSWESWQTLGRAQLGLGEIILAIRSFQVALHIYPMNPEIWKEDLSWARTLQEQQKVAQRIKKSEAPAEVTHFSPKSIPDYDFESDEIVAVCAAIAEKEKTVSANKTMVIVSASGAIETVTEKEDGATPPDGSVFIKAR
UniProt Q6NXT1: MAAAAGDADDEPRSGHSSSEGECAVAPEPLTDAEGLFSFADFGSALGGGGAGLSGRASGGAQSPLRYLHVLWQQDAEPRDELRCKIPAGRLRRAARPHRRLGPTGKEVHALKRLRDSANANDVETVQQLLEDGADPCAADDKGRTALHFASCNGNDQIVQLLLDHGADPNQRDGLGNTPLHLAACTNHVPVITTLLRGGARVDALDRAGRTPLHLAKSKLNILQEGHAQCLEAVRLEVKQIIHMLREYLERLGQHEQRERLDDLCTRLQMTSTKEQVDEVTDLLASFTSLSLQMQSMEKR
UniProt Q5W0B1: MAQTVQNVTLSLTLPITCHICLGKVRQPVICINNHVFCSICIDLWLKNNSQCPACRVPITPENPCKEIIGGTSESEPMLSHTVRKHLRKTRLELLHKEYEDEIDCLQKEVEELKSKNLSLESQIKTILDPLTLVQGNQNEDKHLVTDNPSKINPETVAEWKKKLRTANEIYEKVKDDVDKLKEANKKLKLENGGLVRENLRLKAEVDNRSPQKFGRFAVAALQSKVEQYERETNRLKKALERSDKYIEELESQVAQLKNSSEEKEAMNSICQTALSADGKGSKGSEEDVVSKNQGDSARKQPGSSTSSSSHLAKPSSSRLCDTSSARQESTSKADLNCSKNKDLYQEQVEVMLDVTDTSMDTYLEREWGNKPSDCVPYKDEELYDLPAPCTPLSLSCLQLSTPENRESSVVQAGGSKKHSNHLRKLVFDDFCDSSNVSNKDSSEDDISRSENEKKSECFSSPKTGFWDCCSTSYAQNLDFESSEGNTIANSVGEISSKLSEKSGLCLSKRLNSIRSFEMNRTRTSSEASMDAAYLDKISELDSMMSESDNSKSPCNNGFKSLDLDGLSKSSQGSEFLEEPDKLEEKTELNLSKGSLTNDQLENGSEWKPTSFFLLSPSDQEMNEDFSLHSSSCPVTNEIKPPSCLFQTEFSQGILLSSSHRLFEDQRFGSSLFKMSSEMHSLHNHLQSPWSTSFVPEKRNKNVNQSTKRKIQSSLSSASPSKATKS
UniProt Q6GMV3: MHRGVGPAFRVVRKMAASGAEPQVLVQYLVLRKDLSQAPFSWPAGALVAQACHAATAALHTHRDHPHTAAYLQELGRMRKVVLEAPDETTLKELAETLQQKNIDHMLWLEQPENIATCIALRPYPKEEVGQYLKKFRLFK
UniProt Q6IQ21: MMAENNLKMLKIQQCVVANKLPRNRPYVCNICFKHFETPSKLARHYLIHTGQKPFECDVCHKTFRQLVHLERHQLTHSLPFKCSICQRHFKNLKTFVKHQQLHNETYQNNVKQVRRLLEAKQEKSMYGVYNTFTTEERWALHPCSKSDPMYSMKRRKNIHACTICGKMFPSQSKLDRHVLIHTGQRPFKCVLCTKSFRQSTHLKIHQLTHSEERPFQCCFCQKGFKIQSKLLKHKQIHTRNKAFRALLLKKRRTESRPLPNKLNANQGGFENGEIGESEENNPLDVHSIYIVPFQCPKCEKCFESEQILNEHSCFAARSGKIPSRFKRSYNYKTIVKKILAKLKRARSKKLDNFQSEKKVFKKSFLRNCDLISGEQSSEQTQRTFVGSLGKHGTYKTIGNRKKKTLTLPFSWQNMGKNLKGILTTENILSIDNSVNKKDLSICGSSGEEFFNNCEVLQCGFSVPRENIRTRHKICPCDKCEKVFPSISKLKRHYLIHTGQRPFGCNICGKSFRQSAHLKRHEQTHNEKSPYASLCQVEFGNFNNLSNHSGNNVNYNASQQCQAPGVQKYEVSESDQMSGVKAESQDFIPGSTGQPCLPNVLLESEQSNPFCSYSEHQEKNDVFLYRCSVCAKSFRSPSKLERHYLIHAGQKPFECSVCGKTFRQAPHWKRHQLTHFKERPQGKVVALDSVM
UniProt Q6NSJ5: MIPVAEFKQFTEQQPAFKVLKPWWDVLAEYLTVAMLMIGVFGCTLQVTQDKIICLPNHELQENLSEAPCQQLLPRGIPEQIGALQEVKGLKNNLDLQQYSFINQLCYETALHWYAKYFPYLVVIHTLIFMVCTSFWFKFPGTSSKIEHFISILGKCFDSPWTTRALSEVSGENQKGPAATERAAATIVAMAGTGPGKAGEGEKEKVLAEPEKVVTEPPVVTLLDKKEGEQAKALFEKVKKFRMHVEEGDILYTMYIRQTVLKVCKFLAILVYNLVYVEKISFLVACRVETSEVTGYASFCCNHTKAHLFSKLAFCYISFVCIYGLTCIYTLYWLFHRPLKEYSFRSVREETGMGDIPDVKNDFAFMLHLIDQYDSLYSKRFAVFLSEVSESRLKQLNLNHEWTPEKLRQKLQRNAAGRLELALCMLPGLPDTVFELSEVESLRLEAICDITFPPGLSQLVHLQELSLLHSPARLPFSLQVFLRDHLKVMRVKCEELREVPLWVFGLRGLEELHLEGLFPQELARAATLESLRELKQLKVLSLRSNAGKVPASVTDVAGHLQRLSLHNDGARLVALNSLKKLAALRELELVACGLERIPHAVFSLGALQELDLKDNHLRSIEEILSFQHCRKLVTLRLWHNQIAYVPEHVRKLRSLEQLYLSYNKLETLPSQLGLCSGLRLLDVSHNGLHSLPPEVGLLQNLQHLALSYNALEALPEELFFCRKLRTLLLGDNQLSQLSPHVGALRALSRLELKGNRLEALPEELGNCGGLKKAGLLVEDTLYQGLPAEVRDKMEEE
UniProt Q5VXD3: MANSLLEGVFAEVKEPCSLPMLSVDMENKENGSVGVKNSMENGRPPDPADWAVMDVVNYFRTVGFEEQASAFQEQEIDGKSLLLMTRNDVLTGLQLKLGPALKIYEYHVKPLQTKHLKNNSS

The list shows a part of the results. Small differences around the control level are noise.
What follows are targets tested with Cc1nc(Nc2ncc(C(=O)Nc3c(C)cccc3Cl)s2)cc(N2CCN(CCO)CC2)n1 [dasatinib] (assay: log2 fold change of tryptic peptide abundance, ligand vs vehicle (limited proteolysis) (log2 ratio); higher = more trypsin-susceptible (destabilized)). Details: ligand concentration: 5 uM; sample: K562 cleared lysate.
“RPL7L1 (peptide sequence: EMGTPGYR, peptide start residue: 236) (UniProt Q6DKI1)” gave a log2 fold change of 0.144. For “WDR73 (peptide sequence: GVFVAGYESLKK, peptide start residue: 37) (UniProt Q6P4I2)”, the log2 fold change was -0.734. “UniProt Q5VZE5 (peptide sequence: IMEEQQK, peptide start residue: 550)” was tested, and the log2 fold change was -0.284. “UniProt Q64LD2 (peptide sequence: HGSCEDPGGYRLPLAQLGR, peptide start residue: 67)” gave a log2 fold change of -0.247. “PHLDB3 (peptide sequence: LQGQQLEALTR, peptide start residue: 101) (UniProt Q6NSJ2)” showed a log2 fold change of -0.307. “OGFOD2 (peptide sequence: GGQLHGARPLGTGER, peptide start residue: 286) (UniProt Q6N063)” showed a log2 fold change of -0.378. For “UniProt Q6UW63 (peptide sequence: HDENLYGPIVK, peptide start residue: 342)”, the log2 fold change was -0.0403. Work on “UniProt Q6EEV6 (peptide sequence: VAGQDGSVVQFK, peptide start residue: 22)” yielded a log2 fold change of 0.0461. In the case of “FBXO46 (peptide sequence: WHPKPYHHDLPYGR, peptide start residue: 547) (UniProt Q6PJ61)”, the log2 fold change is reported as 0.471. “PDXDC1 (peptide sequence: GSDALSETSSVSHIEDLEK, peptide start residue: 713) (UniProt Q6P996)” gave a log2 fold change of 0.247. In the case of “FAAP20 (peptide sequence: SLPQRPAPDPCRAPR, peptide start residue: 117) (UniProt Q6NZ36)”, the log2 fold change is reported as 0.0595. “TRMT10B (peptide sequence: AENPGICPQHSKR, peptide start residue: 95) (UniProt Q6PF06)” showed a log2 fold change of -0.362. “UFSP1 (peptide sequence: GVGLHGELER, peptide start residue: 40) (UniProt Q6NVU6)” was tested, and the log2 fold change was -0.468. “KANK2 (peptide sequence: QECQLSR, peptide start residue: 560) (UniProt Q63ZY3)” was tested, and the log2 fold change was 0.344. With “RNF220 (peptide sequence: KLCPQCNTITAPGDLRR, peptide start residue: 547) (UniProt Q5VTB9)” the log2 fold change was 0.145. With “UniProt Q6TFL4 (peptide sequence: YHILGNEMMSPR, peptide start residue: 291)” the log2 fold change was 0.265. In the case of “ARL6IP4 (peptide sequence: EKAEAQQVEALPGPSLDQWHR, peptide start residue: 127) (UniProt Q66PJ3)”, the log2 fold change is reported as 0.0935. “TTC33 (peptide sequence: KEILLEGCAEK, peptide start residue: 48) (UniProt Q6PID6)” showed a log2 fold change of -1.19. For “ANKRD54 (peptide sequence: YLHVLWQQDAEPRDELR, peptide start residue: 67) (UniProt Q6NXT1)”, the log2 fold change was -0.41. “UniProt Q5W0B1 (peptide sequence: VKDDVDKLK, peptide start residue: 174)” gave a log2 fold change of -0.382. For “UniProt Q6GMV3 (peptide sequence: VVLEAPDETTLK, peptide start residue: 81)”, the log2 fold change was 0.415. “INTS3 (peptide sequence: ACQEDDVR, peptide start residue: 730) (UniProt Q68E01)” was tested, and the log2 fold change was -0.428. “ZNF770 (peptide sequence: GILTTENILSIDNSVNKK, peptide start residue: 421) (UniProt Q6IQ21)” showed a log2 fold change of 0.134. “UniProt Q68D86 (peptide sequence: EREMRTALEK, peptide start residue: 274)” was tested, and the log2 fold change was -0.128. Target “LRRC8E (peptide sequence: LWHNQIAYVPEHVR, peptide start residue: 637) (UniProt Q6NSJ5)” has a log2 fold change of -0.238. Target “MZT2B (peptide sequence: GSAALGGALALAER, peptide start residue: 111) (UniProt Q6NZ67)” has a log2 fold change of -0.14. For “UniProt Q5VXD3 (peptide sequence: NDVLTGLQLK, peptide start residue: 88)”, the log2 fold change was 0.121. With “PDE4DIP (peptide sequence: YEASREDIYK, peptide start residue: 37) (UniProt Q5VU43)” the log2 fold change was -0.866.
